Record: PubChem BioAssay AID1259308 (NCATS, 2017)

Test: 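Knock-downs that increase output of a recombinant reporter protein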 (primary screen)
Cell system: human HEK293 embryonic kidney cells stably expressing firefly luciferase (HEK-CMV-Luc2-Hygro)
Reagents: single siRNA against human genes, 0.8 pmol siRNA per well
Timing: 72 h
Detection: 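Reporter luminescence and viable-cell signal on separate replicate plates, given as percent of non-targeting control and median/MAD z-scores, plus per-cell luciferase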
Scale: total luciferase, z-score: higher = more reporter protein produced
Call rule: 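An siRNA counts as active if its total luciferase robust z-score exceeds 3; genes with two or more such siRNAs out of three were retested with fresh siRNAs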
Meaning of the calls: active = raised luciferase; inactive = no rise
In all, the deposit lists about 59,000 reagents; shown is a random part of them. Over the whole deposit, about 1,510 (2.6%) were called active. 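Calls use total luciferase alone and ignore viability, so some active siRNAs may act by altering cell number.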 A number with no mark means an inactive call. Reagents against one gene are numbered here. Not all columns of the deposit are shown.

| gene | siRNA no. | total luciferase, z-score |
| --- | --- | --- |
| TXN (thioredoxin) | 1 | -1.12 |
| TXN (thioredoxin) | 2 | -2.54 |
| TXN (thioredoxin) | 3 | 0.186 |
| RALGAPB (Ral GTPase activating protein non-catalytic subunit beta) | 1 | 0.434 |
| RALGAPB (Ral GTPase activating protein non-catalytic subunit beta) | 2 | -0.542 |
| RALGAPB (Ral GTPase activating protein non-catalytic subunit beta) | 3 | 1.19 |
| MAGI1 | 1 | -0.0721 |
| MAGI1 | 2 | -0.447 |
| MAGI1 | 3 | -1.17 |
| STARD6 (StAR related lipid transfer domain containing 6) | 1 | -1.31 |
| STARD6 (StAR related lipid transfer domain containing 6) | 2 | 0.339 |
| STARD6 (StAR related lipid transfer domain containing 6) | 3 | -1.02 |
| RASA4 (RAS p21 protein activator 4) | 1 | -0.11 |
| RASA4 (RAS p21 protein activator 4) | 2 | -0.0336 |
| RASA4 (RAS p21 protein activator 4) | 3 | -1.33 |
| LUC7L2 (LUC7 like 2, pre-mRNA splicing factor) | 1 | 0.927 |
| LUC7L2 (LUC7 like 2, pre-mRNA splicing factor) | 2 | 2.22 |
| LUC7L2 (LUC7 like 2, pre-mRNA splicing factor) | 3 | 1.57 |
| BECN2 (beclin 2) | 1 | 0.254 |
| BECN2 (beclin 2) | 2 | -0.887 |
| BECN2 (beclin 2) | 3 | 0.531 |
| FOXD1 (forkhead box D1) | 1 | 0.793 |
| FOXD1 (forkhead box D1) | 2 | 0.127 |
| FOXD1 (forkhead box D1) | 3 | -0.773 |
| AKR1C3 (aldo-keto reductase family 1 member C3) | 1 | -0.651 |
| AKR1C3 (aldo-keto reductase family 1 member C3) | 2 | 1.75 |
| AKR1C3 (aldo-keto reductase family 1 member C3) | 3 | -0.157 |

2 entries from above, sorted by “total luciferase, z-score”, ascending.
| gene | siRNA no. | total luciferase, z-score |
| --- | --- | --- |
| FOXD1 (forkhead box D1) | 2 | 0.127 |
| FOXD1 (forkhead box D1) | 1 | 0.793 |

The listing continues.
| gene | siRNA no. | total luciferase, z-score |
| --- | --- | --- |
| SETP4 (SET pseudogene 4) | 1 | 0.873 |
| SETP4 (SET pseudogene 4) | 2 | -0.169 |
| SETP4 (SET pseudogene 4) | 3 | 1.08 |
| BRAT1 (BRCA1 associated ATM activator 1) | 1 | 3.21 (active) |
| BRAT1 (BRCA1 associated ATM activator 1) | 2 | 2.04 |
| BRAT1 (BRCA1 associated ATM activator 1) | 3 | -0.381 |
| MCL1 (MCL1 apoptosis regulator, BCL2 family member) | 1 | 0.251 |
| MCL1 (MCL1 apoptosis regulator, BCL2 family member) | 2 | -0.12 |
| MCL1 (MCL1 apoptosis regulator, BCL2 family member) | 3 | -0.885 |
| MANBAL (mannosidase beta like) | 1 | 0.298 |
| MANBAL (mannosidase beta like) | 2 | -2.99 |
| MANBAL (mannosidase beta like) | 3 | -1.78 |
| C22orf15 (chromosome 22 open reading frame 15) | 1 | 1.92 |
| C22orf15 (chromosome 22 open reading frame 15) | 2 | 2.74 |
| C22orf15 (chromosome 22 open reading frame 15) | 3 | 0.265 |
| LDAH (lipid droplet associated hydrolase) | 1 | -2.77 |
| LDAH (lipid droplet associated hydrolase) | 2 | 0.342 |
| LDAH (lipid droplet associated hydrolase) | 3 | -0.197 |
| TXNDC5 (thioredoxin domain containing 5) | 1 | 0.886 |
| TXNDC5 (thioredoxin domain containing 5) | 2 | 0.583 |
| TXNDC5 (thioredoxin domain containing 5) | 3 | 0.513 |
| ODAM (odontogenic, ameloblast associated) | 1 | 0.379 |
| ODAM (odontogenic, ameloblast associated) | 2 | 0.741 |
| ODAM (odontogenic, ameloblast associated) | 3 | -0.56 |
| OGN (osteoglycin) | 1 | 0.299 |
| OGN (osteoglycin) | 2 | -0.966 |
| OGN (osteoglycin) | 3 | -0.513 |
| NRROS (negative regulator of reactive oxygen species) | 1 | 0.157 |
| NRROS (negative regulator of reactive oxygen species) | 2 | -0.0125 |
| NRROS (negative regulator of reactive oxygen species) | 3 | -0.12 |
